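Cleavage of a resorufin-linked glucose substrate by isolated lysosomal acid glucosylceramidase was followed by fluorescence over a 20-minute room-temperature incubation.
Each compound was run as a titration series spanning about 0.6 nM up to 50 µM final.
The number is the fitted half-maximal concentration (AC50); a lower value means a more potent inhibitor.
The record treats a '>' qualifier as no measurable activity (inactive); no explicit numeric cut-off is stated.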

By UniProt entry, the sequences of proteins in these tests, tags left out.
UniProt P04062, whole entry, target on record: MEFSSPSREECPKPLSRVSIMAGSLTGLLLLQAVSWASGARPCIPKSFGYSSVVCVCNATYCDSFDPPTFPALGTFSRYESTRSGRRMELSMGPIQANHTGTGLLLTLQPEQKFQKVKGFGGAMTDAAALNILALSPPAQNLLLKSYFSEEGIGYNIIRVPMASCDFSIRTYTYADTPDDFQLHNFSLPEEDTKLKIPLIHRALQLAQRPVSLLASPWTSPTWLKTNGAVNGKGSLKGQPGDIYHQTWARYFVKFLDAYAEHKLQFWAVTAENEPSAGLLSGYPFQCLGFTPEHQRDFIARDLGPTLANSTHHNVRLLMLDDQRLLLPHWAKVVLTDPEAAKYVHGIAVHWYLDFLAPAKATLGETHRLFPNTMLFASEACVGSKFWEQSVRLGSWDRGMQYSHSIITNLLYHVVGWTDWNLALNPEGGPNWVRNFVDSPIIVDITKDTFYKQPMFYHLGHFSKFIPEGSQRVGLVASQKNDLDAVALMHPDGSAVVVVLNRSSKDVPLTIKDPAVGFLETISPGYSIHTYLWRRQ

Values are in µM.
All entries here are filed as inactive.
Only inactive entries are shown; hits are left out here.

Compound: COCCNC(=O)Cn1cnc2sc(C)c(S(=O)(=O)N3CCC(C)CC3)c2c1=O
fitted potency (µM): >76.9

Compound: O=C(NCc1ccccn1)c1n[nH]c2ccccc12
fitted potency (µM): >76.9

Compound: FC(F)(F)c1cccc(Nc2ncnc3ccccc23)c1
fitted potency (µM): 41.7

Compound: O=C(NCCCN1CCOCC1)C1CC(=O)N(CCc2ccccc2)C1 (stereo not given)
fitted potency (µM): >76.9

Compound: CCCCn1c(SCc2ccc(C(=O)OC)o2)nc2cc(S(N)(=O)=O)ccc21
fitted potency (µM): >76.9

Compound: CCC(=O)Nc1ccc(NC(=O)CSc2nnnn2CC)cc1C
fitted potency (µM): >76.9

Compound: c1ccc2c(c1)sc1nnnn12
fitted potency (µM): >76.9

Compound: CN1CC(=O)N(CCOc2ccccc2)C1=O
fitted potency (µM): >76.9

Compound: CC(=O)Nc1ccc(NS(=O)(=O)c2cc(C)sc2C)cc1
fitted potency (µM): >76.9

Compound: CCOC(=O)N1CCN(Cc2nc3c(c(=O)[nH]c(=O)n3C)n2Cc2cc(C)ccc2C)CC1
fitted potency (µM): >76.9

Compound: CC(NC(=O)c1ccc2c(c1)OCCO2)C(=O)O (stereo not given)
fitted potency (µM): >76.9

Compound: COCCn1c(SCc2cccnc2)nnc1-c1ccco1
fitted potency (µM): >76.9

Compound: CC(=O)Nc1ccc(SCC(=O)N(CCC#N)c2ccc(C)cc2)cc1
fitted potency (µM): >76.9

Compound: Cc1ccc(CCNC(=O)C2CCN(S(=O)(=O)c3cccc4nsnc34)CC2)cc1
fitted potency (µM): >76.9

Compound: c1ccc2nc3[nH]cnc3nc2c1
fitted potency (µM): >76.9

Compound: O=C(CN(C(=O)c1ccc2c(c1)OCCO2)c1ccccc1)NCC1CCCO1 (stereo not given)
fitted potency (µM): >76.9

Compound: CC(C)OC(=O)c1cccc(C(=O)OCc2ccco2)n1
fitted potency (µM): >76.9

Compound: CCOC(=O)CNS(=O)(=O)c1ccc(S(=O)(=O)N2CCCC2)cc1
fitted potency (µM): >76.9

Compound: Clc1ccc(Cl)c2sc(N3CCCC3)nc12
fitted potency (µM): >76.9

Compound: Cc1n[nH]c(=O)nc1NCc1ccccc1Cl
fitted potency (µM): >76.9

Compound: CCOc1ccc(CCNc2nc3c(c(=O)n(C)c(=O)n3C)n2CC)cc1OCC
fitted potency (µM): >76.9

Compound: CC(=O)Nc1nc(C)nc(C)c1C(C)=O
fitted potency (µM): 54.7

Compound: CCOc1ccc(C2CC(c3cccc(OC)c3OC)n3nnnc3N2)cc1Cl (stereo not given)
fitted potency (µM): >76.9

Compound: O=C(Nc1ccc(Oc2ccc(S(=O)(=O)N3CCOCC3)cn2)cc1)c1ccco1
fitted potency (µM): >76.9

Compound: S=c1[nH]c2ncccc2o1
fitted potency (µM): >76.9

Compound: CCCCNC(=O)NS(=O)(=O)c1ccc(C(=O)OC(C)C)o1
fitted potency (µM): >76.9

Compound: Cc1cc(C)n(-c2ccc(-n3ccnc3)nn2)n1
fitted potency (µM): >76.9

Compound: CC(C)C(=O)N1CCN(CCN=CC2=C(O)CC(c3ccco3)CC2=O)CC1 (stereo not given)
fitted potency (µM): >76.9

Compound: CCn1c(N)c(C(=O)N2CCOCC2)sc1=S
fitted potency (µM): >76.9

Compound: Cc1cc(C)c2cc(C(c3nnnn3CC3CCCO3)N3CCN4CCCC4C3)c(=O)[nH]c2c1 (stereo not given)
fitted potency (µM): >76.9

Compound: Cc1cc(N(C)C)nc(SC(C)C)n1
fitted potency (µM): >76.9

Compound: O=C(c1cc2ccccc2oc1=O)N1CCCN(C(=O)c2cc3ccccc3oc2=O)CC1
fitted potency (µM): >76.9

Compound: CCn1c(SCC(=O)Nc2nc(C)c(C(=O)OC)s2)nnc1C(C)C
fitted potency (µM): >76.9

Once more, the final 2:

Compound	fitted potency (µM)
O=C(c1cc2ccccc2oc1=O)N1CCCN(C(=O)c2cc3ccccc3oc2=O)CC1	>76.9
CCn1c(SCC(=O)Nc2nc(C)c(C(=O)OC)s2)nnc1C(C)C	>76.9

From PubChem BioAssay record AID360 (NCATS, 2006).